This series deals with T1, GmJAG1 (JAGGED 1, C2H2 zinc finger) (Glycine max) (UniProt M1RYC8).
T1 sequence (looked up, limits assumed): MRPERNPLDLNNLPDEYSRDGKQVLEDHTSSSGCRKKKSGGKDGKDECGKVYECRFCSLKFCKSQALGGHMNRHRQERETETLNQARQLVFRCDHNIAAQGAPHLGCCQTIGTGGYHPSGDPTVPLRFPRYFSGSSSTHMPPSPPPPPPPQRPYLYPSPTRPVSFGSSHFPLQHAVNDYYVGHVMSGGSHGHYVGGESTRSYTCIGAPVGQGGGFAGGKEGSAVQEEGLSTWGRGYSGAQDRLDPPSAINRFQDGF
Put plainly: EMSA. The note with it: EMSA: 1 ug recombinant protein, 25 fmol biotin probe, 20 uL binding buffer (composition not given), room temperature, 0.5 h, LightShift Chemiluminescent EMSA kit, protein details: GST (pGEX-4T-1), label: 5' biotin. In general terms: In EMSA bound probe runs differently from free probe, usually more slowly.

Experimental findings from paper PMC11207949 are described below.

The exact form of at least one protein or probe is not confirmed. Protein sequences can lack the tags named with them.

For “GAGTGCATGTCGCTAGCTTCACTGGCAGAACACATGCAGTG (double strand) [M2 probe]”, the binding result is recorded as “binds”.

For “TTCACTGAACATGGCATCTCGCCACTTCCACTGGCGACACA (double strand) [M1 probe]”, the binding result is listed as “binds”.
